Test results reported in paper PMC11900821.
These are yes or no findings as the source states them, for the method shown. Binding seen in cells or lysates may run through a third protein. Some binding calls cover weakened binding; strength is not graded here.

Protein sequences, listed by entry. Tags and fused reporters are not part of them.
UniProt P40763: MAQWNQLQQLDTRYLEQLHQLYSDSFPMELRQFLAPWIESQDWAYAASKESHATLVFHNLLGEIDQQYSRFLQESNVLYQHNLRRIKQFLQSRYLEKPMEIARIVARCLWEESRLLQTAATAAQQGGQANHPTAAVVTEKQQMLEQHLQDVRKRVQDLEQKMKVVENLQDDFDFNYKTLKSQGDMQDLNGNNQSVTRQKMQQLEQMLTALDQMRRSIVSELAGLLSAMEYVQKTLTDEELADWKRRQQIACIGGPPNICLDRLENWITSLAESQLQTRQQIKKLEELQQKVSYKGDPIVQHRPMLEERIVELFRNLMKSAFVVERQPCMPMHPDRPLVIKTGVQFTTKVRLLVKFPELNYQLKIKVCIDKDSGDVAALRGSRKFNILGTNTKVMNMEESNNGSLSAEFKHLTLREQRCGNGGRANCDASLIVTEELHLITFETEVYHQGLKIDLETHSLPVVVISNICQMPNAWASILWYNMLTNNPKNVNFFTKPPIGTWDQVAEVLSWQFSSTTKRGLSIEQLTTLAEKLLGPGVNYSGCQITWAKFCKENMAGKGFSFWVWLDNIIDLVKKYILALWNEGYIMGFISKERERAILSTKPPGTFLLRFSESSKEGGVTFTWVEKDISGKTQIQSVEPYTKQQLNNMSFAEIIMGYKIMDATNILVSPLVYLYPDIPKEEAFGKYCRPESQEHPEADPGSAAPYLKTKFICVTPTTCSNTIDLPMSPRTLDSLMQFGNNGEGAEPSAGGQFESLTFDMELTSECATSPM

Biological target: STAT3 in MDA-MB-231 and SUM159 cells (human (endogenous in MDA-MB-231 and SUM159)) (UniProt P40763)
Test: co-IP; lysates of MDA-MB-231 and SUM159 cells; primary antibody or control IgG with protein A/G agarose beads overnight, Western blot of the precipitates

B1: DIRAS2 (protein, UniProt Q96HU8 1-199)
chain: MPEQSNDYRVAVFGAGGVGKSSLVLRFVKGTFRESYIPTVEDTYRQVISCDKSICTLQITDTTGSHQFPAMQRLSISKGHAFILVYSITSRQSLEELKPIYEQICEIKGDVESIPIMLVGNKCDESPSREVQSSEAEALARTWKCAFMETSAKLNHNVKELFQELLNLEKRRTVSLQIDGKKSKQQKRKEKLKGKCVIM
**Q.** For B1, which binding is on record?
**A.** Its binding is “binds”.
